Positions count from the first letter of the chain named. Results are given in words; binding and its absence hold for the method and conditions named. Binding seen in cells or lysates may run through a third protein. Here binding means that the protein was enriched with, or labelled near, the bait; the list need not be complete. Tags and fused reporters may be left off the sequences shown.

By UniProt entry, the sequences of proteins in these tests, tags left out.
UniProt P51784: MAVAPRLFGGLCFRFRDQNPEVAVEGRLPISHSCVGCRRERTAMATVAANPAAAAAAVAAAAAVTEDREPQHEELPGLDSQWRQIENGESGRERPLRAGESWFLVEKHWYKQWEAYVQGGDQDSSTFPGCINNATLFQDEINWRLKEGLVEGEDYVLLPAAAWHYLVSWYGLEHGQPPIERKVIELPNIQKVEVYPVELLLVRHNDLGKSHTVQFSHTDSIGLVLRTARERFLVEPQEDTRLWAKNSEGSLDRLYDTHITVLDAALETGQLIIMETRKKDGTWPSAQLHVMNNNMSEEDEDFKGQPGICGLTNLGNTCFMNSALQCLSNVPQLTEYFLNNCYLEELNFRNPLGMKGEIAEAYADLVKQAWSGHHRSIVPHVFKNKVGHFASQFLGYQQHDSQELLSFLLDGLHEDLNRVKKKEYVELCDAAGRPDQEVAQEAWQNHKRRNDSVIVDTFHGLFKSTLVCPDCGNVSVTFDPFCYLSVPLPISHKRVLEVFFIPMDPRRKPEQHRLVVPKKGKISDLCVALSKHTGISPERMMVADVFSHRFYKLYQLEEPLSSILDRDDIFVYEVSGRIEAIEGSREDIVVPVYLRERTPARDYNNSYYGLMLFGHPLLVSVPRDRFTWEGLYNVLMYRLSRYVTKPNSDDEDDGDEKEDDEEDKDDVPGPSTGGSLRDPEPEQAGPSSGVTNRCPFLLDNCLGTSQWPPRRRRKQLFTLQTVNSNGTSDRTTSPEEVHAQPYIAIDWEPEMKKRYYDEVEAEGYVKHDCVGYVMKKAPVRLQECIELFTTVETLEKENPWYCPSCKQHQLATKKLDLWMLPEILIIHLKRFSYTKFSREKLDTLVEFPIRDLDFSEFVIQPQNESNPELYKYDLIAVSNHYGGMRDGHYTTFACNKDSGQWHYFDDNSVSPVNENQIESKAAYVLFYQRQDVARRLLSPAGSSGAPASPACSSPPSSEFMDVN
UniProt Q15170: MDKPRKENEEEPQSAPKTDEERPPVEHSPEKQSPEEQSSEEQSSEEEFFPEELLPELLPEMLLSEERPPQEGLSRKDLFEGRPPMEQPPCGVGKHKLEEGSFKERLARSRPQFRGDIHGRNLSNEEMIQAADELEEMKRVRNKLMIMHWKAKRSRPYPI
UniProt O95071: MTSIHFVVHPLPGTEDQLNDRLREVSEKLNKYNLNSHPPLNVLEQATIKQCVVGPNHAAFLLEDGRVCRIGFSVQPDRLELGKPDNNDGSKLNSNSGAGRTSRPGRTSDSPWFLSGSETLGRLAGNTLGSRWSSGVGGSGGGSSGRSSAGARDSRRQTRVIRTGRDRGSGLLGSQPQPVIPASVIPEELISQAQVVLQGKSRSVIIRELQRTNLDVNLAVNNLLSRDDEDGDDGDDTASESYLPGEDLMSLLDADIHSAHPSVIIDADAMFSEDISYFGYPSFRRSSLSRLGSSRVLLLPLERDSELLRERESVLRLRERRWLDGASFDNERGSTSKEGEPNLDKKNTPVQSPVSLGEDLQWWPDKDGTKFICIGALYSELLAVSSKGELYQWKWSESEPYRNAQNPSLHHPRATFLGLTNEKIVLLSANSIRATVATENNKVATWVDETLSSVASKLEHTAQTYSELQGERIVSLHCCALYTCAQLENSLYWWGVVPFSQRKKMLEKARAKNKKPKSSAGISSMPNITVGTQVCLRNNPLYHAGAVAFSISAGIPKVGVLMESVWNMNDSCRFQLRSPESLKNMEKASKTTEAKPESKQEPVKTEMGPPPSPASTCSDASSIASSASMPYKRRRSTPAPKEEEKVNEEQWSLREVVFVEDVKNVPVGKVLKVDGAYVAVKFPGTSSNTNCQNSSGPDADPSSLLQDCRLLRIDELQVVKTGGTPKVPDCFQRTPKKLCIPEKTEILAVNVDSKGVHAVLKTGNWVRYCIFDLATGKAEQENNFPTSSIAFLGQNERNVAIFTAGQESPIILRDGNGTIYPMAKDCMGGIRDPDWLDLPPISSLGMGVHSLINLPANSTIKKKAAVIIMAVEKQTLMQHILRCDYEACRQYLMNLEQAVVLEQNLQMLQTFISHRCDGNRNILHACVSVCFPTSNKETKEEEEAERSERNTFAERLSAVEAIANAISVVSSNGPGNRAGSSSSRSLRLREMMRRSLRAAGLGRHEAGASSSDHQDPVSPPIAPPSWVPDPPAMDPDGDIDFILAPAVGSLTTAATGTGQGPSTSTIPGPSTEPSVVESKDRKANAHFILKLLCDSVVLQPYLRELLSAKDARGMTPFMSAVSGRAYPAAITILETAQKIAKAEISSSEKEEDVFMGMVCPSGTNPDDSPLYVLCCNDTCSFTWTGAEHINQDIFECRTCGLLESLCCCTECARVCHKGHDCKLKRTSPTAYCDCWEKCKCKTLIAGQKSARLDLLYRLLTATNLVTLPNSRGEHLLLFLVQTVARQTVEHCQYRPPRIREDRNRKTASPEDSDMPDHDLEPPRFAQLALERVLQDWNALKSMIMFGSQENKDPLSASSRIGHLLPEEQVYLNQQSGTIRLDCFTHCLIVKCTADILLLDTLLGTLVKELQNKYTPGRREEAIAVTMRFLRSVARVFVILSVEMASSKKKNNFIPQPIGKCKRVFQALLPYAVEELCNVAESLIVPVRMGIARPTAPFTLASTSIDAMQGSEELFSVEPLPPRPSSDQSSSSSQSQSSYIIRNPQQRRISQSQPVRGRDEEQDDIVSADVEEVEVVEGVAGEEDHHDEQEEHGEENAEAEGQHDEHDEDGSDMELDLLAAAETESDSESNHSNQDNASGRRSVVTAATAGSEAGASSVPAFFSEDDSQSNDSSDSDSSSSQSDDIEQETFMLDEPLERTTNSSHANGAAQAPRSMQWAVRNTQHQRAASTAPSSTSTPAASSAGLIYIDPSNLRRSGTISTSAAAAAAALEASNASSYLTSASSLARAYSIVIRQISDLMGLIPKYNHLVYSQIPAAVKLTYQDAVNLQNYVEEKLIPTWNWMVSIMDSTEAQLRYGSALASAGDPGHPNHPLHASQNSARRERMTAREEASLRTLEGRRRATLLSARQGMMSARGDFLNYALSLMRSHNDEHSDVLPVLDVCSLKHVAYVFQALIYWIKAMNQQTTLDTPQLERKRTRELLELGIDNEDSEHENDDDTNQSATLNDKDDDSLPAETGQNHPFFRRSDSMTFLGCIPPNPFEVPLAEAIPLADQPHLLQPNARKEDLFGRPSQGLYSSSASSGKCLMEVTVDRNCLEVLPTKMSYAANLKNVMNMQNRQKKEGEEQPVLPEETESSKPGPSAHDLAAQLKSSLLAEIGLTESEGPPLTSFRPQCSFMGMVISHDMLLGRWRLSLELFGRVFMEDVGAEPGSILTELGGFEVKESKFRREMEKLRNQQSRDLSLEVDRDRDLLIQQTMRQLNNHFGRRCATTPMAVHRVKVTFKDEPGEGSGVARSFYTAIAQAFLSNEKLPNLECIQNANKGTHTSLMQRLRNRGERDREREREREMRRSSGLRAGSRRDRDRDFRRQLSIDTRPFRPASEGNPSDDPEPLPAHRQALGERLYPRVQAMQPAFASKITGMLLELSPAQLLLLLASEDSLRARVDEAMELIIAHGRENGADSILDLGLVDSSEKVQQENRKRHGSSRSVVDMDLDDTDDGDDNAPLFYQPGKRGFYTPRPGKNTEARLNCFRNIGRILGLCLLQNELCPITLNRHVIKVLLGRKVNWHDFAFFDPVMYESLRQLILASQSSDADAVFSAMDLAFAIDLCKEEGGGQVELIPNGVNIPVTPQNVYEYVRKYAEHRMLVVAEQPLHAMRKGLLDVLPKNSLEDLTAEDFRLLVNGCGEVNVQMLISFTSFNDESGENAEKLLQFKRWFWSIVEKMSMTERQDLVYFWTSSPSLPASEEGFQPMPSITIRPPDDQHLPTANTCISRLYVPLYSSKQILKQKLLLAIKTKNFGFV

Assay [1] has as its target T1, 3xFLAG-ZUFSP, full length, wild type (human) (UniProt Q96AP4).
T1 sequence: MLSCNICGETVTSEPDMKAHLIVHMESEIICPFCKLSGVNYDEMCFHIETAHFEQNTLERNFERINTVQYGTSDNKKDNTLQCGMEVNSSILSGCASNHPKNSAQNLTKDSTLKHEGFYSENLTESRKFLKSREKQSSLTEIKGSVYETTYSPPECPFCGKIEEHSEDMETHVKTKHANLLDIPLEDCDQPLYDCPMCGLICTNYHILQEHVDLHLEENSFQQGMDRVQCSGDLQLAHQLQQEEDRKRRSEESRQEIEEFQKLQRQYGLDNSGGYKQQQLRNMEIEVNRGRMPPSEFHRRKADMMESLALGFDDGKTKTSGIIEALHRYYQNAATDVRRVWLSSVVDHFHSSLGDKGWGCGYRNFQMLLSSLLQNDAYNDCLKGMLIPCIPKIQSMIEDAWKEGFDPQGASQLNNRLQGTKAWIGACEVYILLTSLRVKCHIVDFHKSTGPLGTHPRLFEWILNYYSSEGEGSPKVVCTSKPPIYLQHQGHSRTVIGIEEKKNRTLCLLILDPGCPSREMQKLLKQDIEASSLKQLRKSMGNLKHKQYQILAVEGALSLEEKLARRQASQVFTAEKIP
The assay can be described thus: affinity purification with mass spectrometry; as the FLAG immunopurification with LC-MS/MS, repeated in the presence of nuclease.

In assay [2] the target is T1, 3xFLAG-ZUFSP, full length, wild type (human). The assay can be described thus: affinity purification with mass spectrometry; 3xFLAG-ZUFSP immunopurified on anti-FLAG M2 beads from cell lysate (20 mM TRIS pH 7, 150 mM NaCl, 0.1% NP-40), eluted with 3xFLAG peptide; label-free LC-MS/MS against uninduced/untransfected controls; no nuclease.
In assay [3] the target is T2, 3xFLAG-ZUFSP C360A (human) (UniProt Q96AP4).
T2 sequence: T1 sequence with C360A
Described as above.

On to “deubiquitinase USP11 (from UniProt P51784 1-963) (enzyme)”, for which the binding result in assay [1], in assay [2] and in assay [3] was “binds” each time.
For “uncharacterized protein TCEAL1 (from UniProt Q15170 1-159)”, the binding result in assay [1], in assay [2] and in assay [3] was “binds” throughout.
In the case of “ubiquitin ligase UBR5 (from UniProt O95071 1-2799) (enzyme)”, the binding entry in assay [2] and in assay [3] was “binds” throughout.

For the origin of these results see PMC5824887, “A family of unconventional deubiquitinases with modular chain specificity determinants” (Nature Communications, 2018).
